Small-molecule microarray binding calls

Calls as published in the ROBIN set (doi:10.1002/anie.202211358).

Targets (5′ to 3′):
SAM-II: SAM-II riboswitch RNA pseudoknot, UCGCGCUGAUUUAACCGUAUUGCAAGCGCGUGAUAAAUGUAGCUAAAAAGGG. About 21,000 compounds screened, about 200 hits.
TPP: TPP riboswitch RNA three-way junction, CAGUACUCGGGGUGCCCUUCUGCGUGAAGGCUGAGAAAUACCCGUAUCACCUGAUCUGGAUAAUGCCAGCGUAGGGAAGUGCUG. About 24,000 compounds screened, about 160 hits.
PreQ1: PreQ1 riboswitch RNA pseudoknot, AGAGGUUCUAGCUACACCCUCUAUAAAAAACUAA. From B. subtilis. About 24,000 compounds screened, about 170 hits.

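The test is a small-molecule microarray: each compound is printed twice on a reactive slide, and binding shows as fluorescence of the labelled oligonucleotide after washing. The data file lists only calls. An earlier report of the laboratory on the PreQ1, TPP and SAM-II riboswitches (doi:10.1038/s41467-019-09493-3) used 1 µM RNA for 2 h and required a mean Z-score above 3 (spot signal-to-noise against the whole library), a score well above that on a control array, and duplicate spots agreeing (coefficient of variation under 100); it then also set aside compounds that hit other targets, which this list keeps. The cut-offs behind this list may differ. A missing hit is not proof of no binding, and a hit is not a measured affinity.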
Key: Y = hit, N = tested without a hit.
This is an unselected part of the compounds tested.
A target missing from an entry has no call listed here.
A dash means that no call is listed here.

compound,SAM-II,TPP,PreQ1
NCCc1ccc(CN2C[C@@H]3CC[C@H](C2)N(CC2CCC2)C3=O)cc1,N,N,N
Cc1ccc(Cl)cc1NS(=O)(=O)c1cc(Br)cnc1N,-,N,N
CCCCCNc1nc(CCC)c2c(c1C#N)CC(C)(C)OC2,N,N,N
N#Cc1nc(COc2ccc(F)cc2)oc1NCCCn1ccnc1,N,N,N
Cc1ccc2nc(COCC(=O)NC[C@H](C)N)[nH]c2c1,N,N,N
CCn1c(N)nc2cc(C(=O)NCCc3cnn(-c4ccccc4)c3)cnc21,N,N,N
CNc1ncnc2c1c(-c1ccccc1)cn2-c1ccc(Cl)cc1,-,N,N
Cc1cc(Nc2ccc(F)cc2)n2nc(Cc3ccccc3)nc2n1,-,N,N
COc1ccc(NC2=NS(=O)(=O)C(c3ccc(Cl)cc3)=C2C)c(OC)c1,-,N,N
CNC(=O)[C@@H]1C[C@H](N)CN1C(=O)c1cccc(NCc2ccccn2)c1C,N,N,N
Nc1cncc(-n2ccc(-c3cc(Cl)ccc3O)n2)c1,N,N,N
COc1ccc(-c2cnn3c(N)c(-c4cccc(Cl)c4)cnc23)cc1OC,N,N,N
CCOC(=O)c1c(N)sc2c1C1CCN2CC1,N,N,N
CC(=O)NCCOc1cccc2c1NC(C)CC2 (stereo unspecified),N,N,N
O=C(O)CCCc1ccc(N(CCCl)CCCl)cc1,N,N,N
COC(=O)c1nc(N)n(-c2nc(-c3cccs3)cc(C(F)(F)F)n2)n1,N,N,N
Cl.OC(CN1CCCCCC1)CN(c1ccccc1)c1ccccc1 (stereo unspecified),N,N,N
NC(=O)C1=C(NCc2ccccc2)c2ccccc2S1(=O)=O,-,N,N
Nc1c(C(=O)Nc2ccccc2)c2ccccn2c1C(=O)c1ccccc1,N,N,N
CCn1c2ccccc2c2c3ncc4cccn4c3ccc21,N,N,N
OCCNCCNCc1ccc(-c2cccc(Cl)c2)o1,-,N,N
C#CCN1C(=O)C2(C(C#N)=C(N)OC3=C2C(=O)CCC3)c2ccccc21 (stereo unspecified),N,N,N
Oc1ccc(Nc2ccc3ccccc3c2)cc1,N,N,N
CCOC(=O)c1cccc(Nc2cc(-c3ccccc3)ncn2)c1,-,Y,N
OCCNc1cc(-n2nc(-c3ccccc3)cc2-c2ccccc2)ncn1,N,N,N
Cc1cc(NCCC2=CCCCC2)n2nc(C(F)(F)F)nc2n1,-,N,N
NC(=O)[C@H](Cc1ccc(O)cc1)NC(=O)c1cn([C@H]2CC[C@@H](N)CC2)nn1,N,N,N
C=CCNCC=CCOc1ccc(F)cc1,N,N,N
Cc1cccc(C)c1NC(=O)Cn1nnc(C(=O)Nc2c(C)cccc2C)c1N,N,N,N
CSCCC(O)C(=O)N1CCN(Cc2ncccc2C)CC1 (stereo unspecified),N,N,N
O=C1Cc2cccc(O)c(=O)c2C(=O)O1,N,N,N
COc1ccc2c(c1OC)C(=O)OC2Nc1ccc(C(C)=O)cc1 (stereo unspecified),N,N,N
CCCc1nc(-c2cc3cccc(C)c3nc2NC(C)c2ccccn2)no1 (stereo unspecified),-,N,N
C=CCNc1ccccc1C(=O)N1CCCC1c1ccc(C(=O)NC)s1 (stereo unspecified),N,N,N
CC(C)[C@]1(O)CN(C(=O)c2cccc3c2NCCC3)C[C@H]1C,N,N,N
Cc1nc(N)sc1C(=O)N1CCC(c2nnc(CN(C)C)n2C)CC1,N,N,N
CCC(O)(CCCO)CNC(=O)c1cc(Cl)c(C)c(Cl)c1 (stereo unspecified),N,N,N
CC(C)C[C@@H](N)C(=O)N(C)Cc1cc(C(C)(C)C)n[nH]1,N,N,N
CC(C)(C)c1cc(CN2CCC3(CCC(=O)N(CCCO)C3)CC2)n[nH]1,N,N,N
N#Cc1nc(-c2ccc(S(=O)(=O)N3CCCCC3)cc2)oc1NC1CC1,-,N,N

The last 3 entries again:

* CC(C)C[C@@H](N)C(=O)N(C)Cc1cc(C(C)(C)C)n[nH]1 : SAM-II: N; TPP: N; PreQ1: N
* CC(C)(C)c1cc(CN2CCC3(CCC(=O)N(CCCO)C3)CC2)n[nH]1 : SAM-II: N; TPP: N; PreQ1: N
* N#Cc1nc(-c2ccc(S(=O)(=O)N3CCCCC3)cc2)oc1NC1CC1 : TPP: N; PreQ1: N